Reference: patent US4748155A, “Pharmacologically active tripeptides and process for their synthesis” (Eniricerche S.p.A., priority 1985, dated 1988)
Not every detail of the peptide structures is certain; ends, links or a residue may be inferred.

Test system: arterial pressure of normotensive male rats
Assay: Hypotensive activity on arterial pressure of anaesthetized normotensive rats
Format: in vivo, rat
Conditions: 0.2 mg/kg of body weight injected into vein; normotensive C.D. male rats anaesthetized with urethane

SMILES | hypotensive effect, delta for diastolic arterial pressure | hypotensive effect, delta for systolic arterial pressure
CC(C)C[C@@H](NC(=O)C(Cc1c[nH]c2ccccc12)C(=O)O)NC(=O)[C@@H]1CCC(=O)N1 (stereo partly drawn) [GLP-g-Leu-m-TRP-OH, N-(pyroglutamyl)-N'-[(R,S)-alpha-carboxy-beta-3-indolyl-propanoyl]-(S)-1,1-diamino-isopentane] | 35 mmHg | 40 mmHg
CC(C)CC(C(=O)N[C@@H]1CCC(=O)N1)C(=O)N[C@@H](Cc1c[nH]c2ccccc12)C(=O)O (stereo partly shown) [g-GLP-m-Leu-TRP-OH] | 30 mmHg | 30 mmHg
